From the supplement of paper PMC12823440, “Inhibitors supercharge kinase turnover through native proteolytic circuits” (Nature, 2025)
Where a name gives a salt, the structure may show the parent alone. The list shows a part of the results. Hit calls seldom repeat between salt and free forms of one compound.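 Kinases, fused to nanoluciferase, were expressed in K562 cells; luminescence was measured every 4 h from 2 to 18 h as percent of control (DMSO = 100%, positive control = 0%). A time point is decreased if signal falls significantly (2 sigma). Hits were called by the authors by a rule that is not shown; the count of time points alone does not decide it.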

Chains of the proteins cited; added tags and fusions are not shown. Lines headed by an entry give the natural chain unless they say otherwise; changes in a name come on top.
UniProt Q9Y616: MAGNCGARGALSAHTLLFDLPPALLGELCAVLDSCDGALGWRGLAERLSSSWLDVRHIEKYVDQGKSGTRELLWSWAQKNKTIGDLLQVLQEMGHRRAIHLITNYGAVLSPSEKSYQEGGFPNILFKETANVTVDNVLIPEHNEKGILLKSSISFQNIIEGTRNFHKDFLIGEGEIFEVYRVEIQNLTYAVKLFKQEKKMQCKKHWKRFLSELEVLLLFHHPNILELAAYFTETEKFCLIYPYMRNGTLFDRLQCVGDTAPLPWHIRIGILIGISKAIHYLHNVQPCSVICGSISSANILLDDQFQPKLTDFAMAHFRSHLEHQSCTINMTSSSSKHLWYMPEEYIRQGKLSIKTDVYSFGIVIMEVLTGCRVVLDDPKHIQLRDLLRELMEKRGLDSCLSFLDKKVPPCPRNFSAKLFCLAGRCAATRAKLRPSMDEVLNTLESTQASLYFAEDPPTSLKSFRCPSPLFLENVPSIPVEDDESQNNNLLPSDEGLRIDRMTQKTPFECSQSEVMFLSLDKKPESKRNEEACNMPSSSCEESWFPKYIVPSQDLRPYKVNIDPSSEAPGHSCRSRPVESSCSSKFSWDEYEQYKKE
UniProt P23458: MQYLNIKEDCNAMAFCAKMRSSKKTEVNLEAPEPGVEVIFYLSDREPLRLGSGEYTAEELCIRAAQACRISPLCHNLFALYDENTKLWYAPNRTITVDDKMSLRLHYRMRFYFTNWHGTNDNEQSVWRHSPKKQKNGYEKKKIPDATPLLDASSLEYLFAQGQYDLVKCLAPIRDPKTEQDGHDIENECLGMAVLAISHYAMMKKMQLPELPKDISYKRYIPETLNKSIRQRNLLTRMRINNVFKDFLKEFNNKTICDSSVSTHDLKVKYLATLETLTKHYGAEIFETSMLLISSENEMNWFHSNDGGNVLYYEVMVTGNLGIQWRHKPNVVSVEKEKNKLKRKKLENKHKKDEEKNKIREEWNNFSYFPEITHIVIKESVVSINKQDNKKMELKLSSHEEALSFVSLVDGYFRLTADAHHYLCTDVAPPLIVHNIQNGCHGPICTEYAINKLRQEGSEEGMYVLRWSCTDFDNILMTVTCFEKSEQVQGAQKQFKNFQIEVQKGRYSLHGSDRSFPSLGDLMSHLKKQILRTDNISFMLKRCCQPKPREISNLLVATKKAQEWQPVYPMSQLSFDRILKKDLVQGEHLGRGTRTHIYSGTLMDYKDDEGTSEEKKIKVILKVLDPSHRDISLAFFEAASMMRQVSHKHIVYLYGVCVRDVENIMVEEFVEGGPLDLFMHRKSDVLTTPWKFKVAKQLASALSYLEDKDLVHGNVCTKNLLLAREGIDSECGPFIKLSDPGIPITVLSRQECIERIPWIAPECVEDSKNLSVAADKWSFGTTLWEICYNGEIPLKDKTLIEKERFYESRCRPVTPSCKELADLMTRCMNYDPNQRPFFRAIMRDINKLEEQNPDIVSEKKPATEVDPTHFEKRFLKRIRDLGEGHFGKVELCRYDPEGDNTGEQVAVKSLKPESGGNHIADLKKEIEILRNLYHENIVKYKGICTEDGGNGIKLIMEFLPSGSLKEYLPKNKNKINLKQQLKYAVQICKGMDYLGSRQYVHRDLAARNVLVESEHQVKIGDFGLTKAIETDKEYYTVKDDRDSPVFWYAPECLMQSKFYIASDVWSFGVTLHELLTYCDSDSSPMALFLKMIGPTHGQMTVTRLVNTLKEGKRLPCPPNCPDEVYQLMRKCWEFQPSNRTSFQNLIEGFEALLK
UniProt P06239: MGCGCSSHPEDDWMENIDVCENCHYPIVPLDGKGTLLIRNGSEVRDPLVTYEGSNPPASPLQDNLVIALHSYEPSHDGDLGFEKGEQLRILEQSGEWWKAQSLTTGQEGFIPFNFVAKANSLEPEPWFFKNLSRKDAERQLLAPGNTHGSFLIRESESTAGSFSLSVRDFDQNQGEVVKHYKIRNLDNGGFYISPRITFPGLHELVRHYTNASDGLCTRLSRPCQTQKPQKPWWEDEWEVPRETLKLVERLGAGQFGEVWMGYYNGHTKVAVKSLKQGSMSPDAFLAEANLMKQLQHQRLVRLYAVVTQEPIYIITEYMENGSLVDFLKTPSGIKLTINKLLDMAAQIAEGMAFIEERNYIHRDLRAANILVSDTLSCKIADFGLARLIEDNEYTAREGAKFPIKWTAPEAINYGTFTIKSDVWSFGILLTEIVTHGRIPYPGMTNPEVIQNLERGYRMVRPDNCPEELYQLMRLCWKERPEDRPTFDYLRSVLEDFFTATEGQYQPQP
UniProt P53667: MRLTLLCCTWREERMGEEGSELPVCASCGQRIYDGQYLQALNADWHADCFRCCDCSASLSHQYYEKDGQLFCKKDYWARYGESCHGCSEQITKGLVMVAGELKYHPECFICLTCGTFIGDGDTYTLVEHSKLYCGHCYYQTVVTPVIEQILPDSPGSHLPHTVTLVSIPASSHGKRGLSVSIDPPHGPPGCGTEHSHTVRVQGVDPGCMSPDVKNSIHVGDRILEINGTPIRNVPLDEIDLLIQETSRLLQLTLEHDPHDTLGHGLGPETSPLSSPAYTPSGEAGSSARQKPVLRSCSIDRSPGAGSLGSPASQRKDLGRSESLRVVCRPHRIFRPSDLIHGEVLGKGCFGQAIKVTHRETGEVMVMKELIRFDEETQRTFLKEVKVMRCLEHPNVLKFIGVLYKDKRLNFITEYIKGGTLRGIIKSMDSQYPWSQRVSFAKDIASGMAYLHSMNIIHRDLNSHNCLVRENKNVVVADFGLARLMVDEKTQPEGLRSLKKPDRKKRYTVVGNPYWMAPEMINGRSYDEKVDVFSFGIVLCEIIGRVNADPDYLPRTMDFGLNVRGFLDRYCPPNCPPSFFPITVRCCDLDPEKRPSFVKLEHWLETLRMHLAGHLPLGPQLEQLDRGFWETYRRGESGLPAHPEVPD
UniProt P53671: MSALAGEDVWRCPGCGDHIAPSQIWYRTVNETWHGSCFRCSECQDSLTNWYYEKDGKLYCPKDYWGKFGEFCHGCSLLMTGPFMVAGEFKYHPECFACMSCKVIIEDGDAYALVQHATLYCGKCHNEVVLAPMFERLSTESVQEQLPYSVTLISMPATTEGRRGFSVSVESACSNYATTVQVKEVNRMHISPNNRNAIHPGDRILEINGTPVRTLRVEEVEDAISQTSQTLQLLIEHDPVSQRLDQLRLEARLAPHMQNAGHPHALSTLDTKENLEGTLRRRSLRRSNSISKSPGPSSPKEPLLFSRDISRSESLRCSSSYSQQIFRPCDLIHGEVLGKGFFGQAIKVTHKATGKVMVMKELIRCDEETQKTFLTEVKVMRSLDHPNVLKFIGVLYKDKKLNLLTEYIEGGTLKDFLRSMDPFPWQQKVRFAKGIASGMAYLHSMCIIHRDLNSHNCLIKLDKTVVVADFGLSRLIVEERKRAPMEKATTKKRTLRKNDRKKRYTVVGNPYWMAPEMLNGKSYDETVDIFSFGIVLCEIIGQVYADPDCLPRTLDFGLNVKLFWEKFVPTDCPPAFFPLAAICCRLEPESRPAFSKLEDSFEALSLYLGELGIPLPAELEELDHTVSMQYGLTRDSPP
UniProt Q8IWU2: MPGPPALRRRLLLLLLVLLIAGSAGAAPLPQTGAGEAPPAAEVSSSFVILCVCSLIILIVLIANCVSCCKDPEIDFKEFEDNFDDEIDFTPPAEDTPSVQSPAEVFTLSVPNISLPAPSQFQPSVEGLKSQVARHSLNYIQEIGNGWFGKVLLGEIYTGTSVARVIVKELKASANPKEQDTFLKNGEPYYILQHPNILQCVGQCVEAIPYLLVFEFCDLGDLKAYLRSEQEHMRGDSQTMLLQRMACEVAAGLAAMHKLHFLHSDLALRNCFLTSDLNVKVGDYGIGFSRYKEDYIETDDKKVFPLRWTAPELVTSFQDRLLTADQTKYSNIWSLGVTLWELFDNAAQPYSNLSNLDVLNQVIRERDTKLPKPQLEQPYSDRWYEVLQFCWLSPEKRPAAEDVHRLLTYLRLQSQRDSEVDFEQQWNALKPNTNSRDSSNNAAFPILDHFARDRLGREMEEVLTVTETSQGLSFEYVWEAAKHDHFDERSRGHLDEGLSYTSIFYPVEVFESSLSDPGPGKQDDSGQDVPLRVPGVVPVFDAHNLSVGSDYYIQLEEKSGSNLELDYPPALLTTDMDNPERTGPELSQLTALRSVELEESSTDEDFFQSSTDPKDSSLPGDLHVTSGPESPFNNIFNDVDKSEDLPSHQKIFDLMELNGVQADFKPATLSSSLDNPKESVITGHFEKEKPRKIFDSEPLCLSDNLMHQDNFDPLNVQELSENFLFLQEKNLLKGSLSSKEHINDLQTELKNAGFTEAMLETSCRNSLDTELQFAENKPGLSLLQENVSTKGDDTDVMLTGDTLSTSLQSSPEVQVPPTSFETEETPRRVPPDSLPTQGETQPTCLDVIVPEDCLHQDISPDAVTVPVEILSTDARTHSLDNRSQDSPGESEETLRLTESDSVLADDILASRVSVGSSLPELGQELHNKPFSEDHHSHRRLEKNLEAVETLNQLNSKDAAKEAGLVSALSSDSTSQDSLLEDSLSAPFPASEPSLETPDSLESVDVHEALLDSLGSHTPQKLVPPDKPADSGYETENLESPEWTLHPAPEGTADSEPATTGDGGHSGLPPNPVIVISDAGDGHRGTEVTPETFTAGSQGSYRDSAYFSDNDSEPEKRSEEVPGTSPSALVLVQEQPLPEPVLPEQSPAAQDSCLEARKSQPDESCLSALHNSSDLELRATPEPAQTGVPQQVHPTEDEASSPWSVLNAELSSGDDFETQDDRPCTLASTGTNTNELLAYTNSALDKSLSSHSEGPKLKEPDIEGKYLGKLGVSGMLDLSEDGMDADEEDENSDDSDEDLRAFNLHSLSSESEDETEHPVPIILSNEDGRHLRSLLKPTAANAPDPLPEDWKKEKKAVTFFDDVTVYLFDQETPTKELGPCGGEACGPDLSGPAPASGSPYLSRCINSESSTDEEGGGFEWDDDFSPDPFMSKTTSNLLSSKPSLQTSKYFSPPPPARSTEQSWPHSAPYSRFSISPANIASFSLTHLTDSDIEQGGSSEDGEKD
UniProt P07948: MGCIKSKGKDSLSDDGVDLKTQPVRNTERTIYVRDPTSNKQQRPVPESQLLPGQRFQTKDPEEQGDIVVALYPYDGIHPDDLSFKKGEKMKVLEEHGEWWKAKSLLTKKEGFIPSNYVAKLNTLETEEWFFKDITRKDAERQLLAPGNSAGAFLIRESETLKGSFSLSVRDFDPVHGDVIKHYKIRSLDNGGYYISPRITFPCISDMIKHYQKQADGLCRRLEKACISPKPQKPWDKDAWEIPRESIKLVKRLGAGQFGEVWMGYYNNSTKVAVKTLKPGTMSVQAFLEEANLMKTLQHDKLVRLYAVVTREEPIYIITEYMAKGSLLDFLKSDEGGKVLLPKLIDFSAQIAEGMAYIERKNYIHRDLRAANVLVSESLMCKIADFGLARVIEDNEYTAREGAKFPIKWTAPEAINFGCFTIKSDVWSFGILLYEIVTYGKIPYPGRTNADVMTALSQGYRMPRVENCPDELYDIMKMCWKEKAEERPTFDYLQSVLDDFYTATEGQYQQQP
UniProt Q12851: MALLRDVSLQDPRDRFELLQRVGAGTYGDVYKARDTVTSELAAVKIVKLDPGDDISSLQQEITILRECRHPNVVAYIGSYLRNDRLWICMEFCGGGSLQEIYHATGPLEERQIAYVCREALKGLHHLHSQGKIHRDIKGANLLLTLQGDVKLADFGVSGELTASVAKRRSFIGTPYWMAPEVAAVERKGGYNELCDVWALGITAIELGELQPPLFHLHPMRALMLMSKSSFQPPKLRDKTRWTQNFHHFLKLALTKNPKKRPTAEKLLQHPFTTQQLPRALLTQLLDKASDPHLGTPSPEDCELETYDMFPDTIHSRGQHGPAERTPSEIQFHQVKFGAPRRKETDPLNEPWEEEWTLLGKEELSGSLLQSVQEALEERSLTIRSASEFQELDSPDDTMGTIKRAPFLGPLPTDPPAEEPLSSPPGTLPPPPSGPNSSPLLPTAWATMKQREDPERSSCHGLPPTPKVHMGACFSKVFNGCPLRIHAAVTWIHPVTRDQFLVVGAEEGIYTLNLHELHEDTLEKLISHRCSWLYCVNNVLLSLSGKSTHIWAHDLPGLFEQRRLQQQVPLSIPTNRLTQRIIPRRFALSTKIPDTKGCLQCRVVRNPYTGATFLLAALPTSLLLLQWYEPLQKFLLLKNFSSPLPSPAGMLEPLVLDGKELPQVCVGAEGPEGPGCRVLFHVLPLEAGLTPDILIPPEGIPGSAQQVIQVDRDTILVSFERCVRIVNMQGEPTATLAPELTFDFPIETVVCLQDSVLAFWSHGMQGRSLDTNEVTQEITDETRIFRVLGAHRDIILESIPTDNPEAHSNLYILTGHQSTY

How the values were obtained:
Assay in all cases: kinase-Nluc reporter destabilization hit call (1 = scored as downregulated) (binary); higher = compound decreases kinase abundance
Conditions in all cases: K562; 2-18 h
[1] = biological target: IRAK3 (UniProt Q9Y616)
[2] = biological target: JAK1 (UniProt P23458)
[3] = biological target: LCK (UniProt P06239)
[4] = biological target: LIMK1 (UniProt P53667)
[5] = biological target: LIMK2 (UniProt P53671)
[6] = biological target: LMTK2 (UniProt Q8IWU2)
[7] = biological target: LYN (UniProt P07948)
[8] = biological target: MAP2K1 (UniProt Q02750)
[9] = biological target: MAP2K2 (UniProt P36507)
[10] = biological target: MAP4K2 (UniProt Q12851)

| SMILES | kinase-Nluc reporter destabilization hit call [1] | kinase-Nluc reporter destabilization hit call [2] | kinase-Nluc reporter destabilization hit call [3] | kinase-Nluc reporter destabilization hit call [4] | kinase-Nluc reporter destabilization hit call [5] | kinase-Nluc reporter destabilization hit call [6] | kinase-Nluc reporter destabilization hit call [7] | kinase-Nluc reporter destabilization hit call [8] | kinase-Nluc reporter destabilization hit call [9] | kinase-Nluc reporter destabilization hit call [10] |
| --- | --- | --- | --- | --- | --- | --- | --- | --- | --- | --- |
| Cc1nc(NC(=O)N2CCC[C@H]2C(N)=O)sc1-c1csc(C(C)(C)C)n1 (10 µM) | inactive: 0 | inactive: 0 | inactive: 0 | inactive: 0 | inactive: 0 | inactive: 0 | inactive: 0 | inactive: 0 | inactive: 0 | inactive: 0 |
| Nc1n[nH]c(N)c1N=Nc1ccc(O)cc1 (10 µM) | inactive: 0 | inactive: 0 | inactive: 0 | inactive: 0 | inactive: 0 | inactive: 0 | inactive: 0 | inactive: 0 | inactive: 0 | inactive: 0 |
| CC(C)(O)c1cc(Nc2cc(Oc3cn(C4CC4)nc3C3CCOCC3)ccn2)ccn1 (10 µM) | inactive: 0 | inactive: 0 | inactive: 0 | inactive: 0 | inactive: 0 | inactive: 0 | inactive: 0 | inactive: 0 | inactive: 0 | inactive: 0 |
| CN1CCC(c2ccccc2CC(C)(C)Nc2nc(N3CCOCC3)nc(-n3c(S(C)(=O)=O)nc4ccccc43)n2)CC1 (10 µM) | inactive: 0 | inactive: 0 | inactive: 0 | inactive: 0 | inactive: 0 | inactive: 0 | inactive: 0 | inactive: 0 | inactive: 0 | inactive: 0 |
| CN(C)CCCn1cc(C2=C(c3c[nH]c4ccccc34)C(=O)NC2=O)c2ccccc21 [Bisindolylmaleimide I] (2.5 µM) | inactive: 0 | inactive: 0 | inactive: 0 | inactive: 0 | inactive: 0 | inactive: 0 | inactive: 0 | inactive: 0 | inactive: 0 | inactive: 0 |
| COc1cc(-c2cnc(N)c(-c3ccc(NC(=O)c4cn(CC5CCOCC5)cc(-c5ccc(C)cn5)c4=O)cc3F)c2)ccc1OC[C@H]1COCCO1 [DS-1205b (free base)] (10 µM) | inactive: 0 | inactive: 0 | inactive: 0 | inactive: 0 | inactive: 0 | inactive: 0 | inactive: 0 | inactive: 0 | inactive: 0 | inactive: 0 |
| O=c1cc(-c2ccc(O)cc2)oc2cc(O)c([C@@H]3O[C@H](CO)[C@@H](O)[C@H](O)[C@H]3O)c(O)c12 [Isovitexin] (10 µM) | inactive: 0 | inactive: 0 | inactive: 0 | inactive: 0 | inactive: 0 | inactive: 0 | inactive: 0 | inactive: 0 | inactive: 0 | inactive: 0 |
| O=C(O)/C=C/c1cc(Br)c(Br)c(Br)c1Br (10 µM) | inactive: 0 | inactive: 0 | inactive: 0 | inactive: 0 | inactive: 0 | inactive: 0 | inactive: 0 | inactive: 0 | inactive: 0 | inactive: 0 |
| Cc1cc(=O)[nH]c(=S)[nH]1 [Methylthiouracil] (10 µM) | inactive: 0 | inactive: 0 | inactive: 0 | inactive: 0 | inactive: 0 | inactive: 0 | inactive: 0 | inactive: 0 | inactive: 0 | inactive: 0 |
| Cn1cc(-c2cn3nccc3c(-c3cnn([C@]4(CC#N)C[C@@H](C#N)C4)c3)n2)cn1 (10 µM) | inactive: 0 | inactive: 0 | inactive: 0 | inactive: 0 | inactive: 0 | inactive: 0 | inactive: 0 | inactive: 0 | inactive: 0 | inactive: 0 |
| O=C(O)[C@]1(Cc2cccc(Nc3nccs3)n2)CC[C@@H](Oc2cccc(Cl)c2F)CC1 (2.5 µM) | inactive: 0 | inactive: 0 | inactive: 0 | inactive: 0 | inactive: 0 | inactive: 0 | inactive: 0 | inactive: 0 | inactive: 0 | inactive: 0 |
| CNC(=O)c1ccc(-c2cnc3ncc(Cc4ccc5ncccc5c4)n3n2)cc1F [Capmatinib] (10 µM) | inactive: 0 | inactive: 0 | inactive: 0 | inactive: 0 | inactive: 0 | inactive: 0 | inactive: 0 | inactive: 0 | inactive: 0 | inactive: 0 |
| Oc1ccc2ccccc2c1SSc1c(O)ccc2ccccc12 (10 µM) | inactive: 0 | inactive: 0 | inactive: 0 | inactive: 0 | inactive: 0 | inactive: 0 | inactive: 0 | inactive: 0 | inactive: 0 | inactive: 0 |
| C1=N/C2=N/c3ccc(OCCN4CCCC4)c(c3)COC/C=C/COCc3cccc(c3)C(=C1)N2 [Pacritinib] (2.5 µM) | inactive: 0 | inactive: 0 | inactive: 0 | inactive: 0 | inactive: 0 | inactive: 0 | inactive: 0 | inactive: 0 | inactive: 0 | inactive: 0 |
| C=CC(=O)N[C@H]1CCOC[C@H]1Nc1ncc2cc(-c3c(Cl)c(OC)cc(OC)c3Cl)ccc2n1 [Fisogatinib] (10 µM) | inactive: 0 | inactive: 0 | inactive: 0 | inactive: 0 | inactive: 0 | inactive: 0 | inactive: 0 | inactive: 0 | inactive: 0 | inactive: 0 |
| CCOC(=O)C1=C[C@]2(CC)CCCN3CCc4c(n1c1ccccc41)[C@@H]32 [Vinpocetine] (10 µM) | inactive: 0 | inactive: 0 | inactive: 0 | inactive: 0 | inactive: 0 | inactive: 0 | inactive: 0 | inactive: 0 | inactive: 0 | inactive: 0 |
| CC(C)(C)S(=O)(=O)c1ccc2nccc(Nc3n[nH]c4ccc(F)cc34)c2c1 (10 µM) | inactive: 0 | inactive: 0 | inactive: 0 | inactive: 0 | inactive: 0 | inactive: 0 | inactive: 0 | inactive: 0 | inactive: 0 | inactive: 0 |
| CCC(=O)N1CC[C@H](Nc2ncnc3c2CN(c2cnc(OC)c(C(F)(F)F)c2)CC3)C1 [Leniolisib] (10 µM) | inactive: 0 | inactive: 0 | inactive: 0 | inactive: 0 | inactive: 0 | inactive: 0 | inactive: 0 | inactive: 0 | inactive: 0 | inactive: 0 |
| NC(=O)c1ccc2nc(-c3ccc(C4(N)CCC4)cc3)c(-c3ccccc3)n2n1 (10 µM) | inactive: 0 | inactive: 0 | inactive: 0 | inactive: 0 | inactive: 0 | inactive: 0 | inactive: 0 | inactive: 0 | inactive: 0 | inactive: 0 |
| N#Cc1c[nH]c2ccc(-c3ccc(-c4c(O)cccc4O)cc3)cc12 (10 µM) | inactive: 0 | inactive: 0 | inactive: 0 | inactive: 0 | inactive: 0 | inactive: 0 | inactive: 0 | inactive: 0 | inactive: 0 | inactive: 0 |
| O=C(N=c1sccn1Cc1ccccc1)c1c[nH]c2ncccc12 (10 µM) | inactive: 0 | inactive: 0 | inactive: 0 | inactive: 0 | inactive: 0 | inactive: 0 | inactive: 0 | inactive: 0 | inactive: 0 | inactive: 0 |
| O=C(CC(c1ccccc1)C(C(=O)O)C(=O)O)c1ccc(C(F)(F)F)cc1 (stereo not given) (10 µM) | inactive: 0 | inactive: 0 | inactive: 0 | inactive: 0 | inactive: 0 | inactive: 0 | inactive: 0 | inactive: 0 | inactive: 0 | inactive: 0 |
| COc1cc(-c2cc(-c3cccc(O)c3)cnc2N)cc(OC)c1OC (2.5 µM) | inactive: 0 | inactive: 0 | inactive: 0 | inactive: 0 | inactive: 0 | inactive: 0 | inactive: 0 | inactive: 0 | inactive: 0 | inactive: 0 |
| Clc1ccc(Nc2cccc(-c3cn[nH]c3)c2)cc1 (10 µM) | inactive: 0 | inactive: 0 | inactive: 0 | inactive: 0 | inactive: 0 | inactive: 0 | inactive: 0 | inactive: 0 | inactive: 0 | inactive: 0 |
| Cn1cc(-c2ccc3nnc(Sc4ccc5nn(C)cc5c4)n3n2)cn1 [c-Met inhibitor 1] (10 µM) | inactive: 0 | inactive: 0 | inactive: 0 | inactive: 0 | inactive: 0 | inactive: 0 | inactive: 0 | inactive: 0 | inactive: 0 | inactive: 0 |
| CCCCNc1ncc2c(-c3ccc(CN4CCN(C)CC4)cc3)cn([C@H]3CC[C@H](O)CC3)c2n1 [UNC2025 (hydrochloride)] (2.5 µM) | inactive: 0 | inactive: 0 | inactive: 0 | inactive: 0 | inactive: 0 | inactive: 0 | inactive: 0 | inactive: 0 | inactive: 0 | inactive: 0 |
| Cc1ccc(-n2c(-c3ccc(O)cc3O)n[nH]c2=O)cc1 (10 µM) | inactive: 0 | active: 1 | inactive: 0 | inactive: 0 | inactive: 0 | inactive: 0 | inactive: 0 | inactive: 0 | inactive: 0 | inactive: 0 |
| Cn1cc(-c2ccc3ncc(Cc4ccc5ncccc5c4)n3n2)cn1 (10 µM) | inactive: 0 | inactive: 0 | inactive: 0 | inactive: 0 | inactive: 0 | inactive: 0 | inactive: 0 | inactive: 0 | inactive: 0 | inactive: 0 |
| C=CC(=O)Nc1cccc(Nc2nc(Nc3ccc(Oc4ccnc(C(=O)NC)c4)cc3)ncc2F)c1 (2.5 µM) | inactive: 0 | inactive: 0 | inactive: 0 | inactive: 0 | inactive: 0 | inactive: 0 | inactive: 0 | inactive: 0 | inactive: 0 | inactive: 0 |

Compounds from the list above containing a tert-butyl group, in the order listed:

| SMILES | kinase-Nluc reporter destabilization hit call [1] | kinase-Nluc reporter destabilization hit call [2] | kinase-Nluc reporter destabilization hit call [3] | kinase-Nluc reporter destabilization hit call [4] | kinase-Nluc reporter destabilization hit call [5] | kinase-Nluc reporter destabilization hit call [6] | kinase-Nluc reporter destabilization hit call [7] | kinase-Nluc reporter destabilization hit call [8] | kinase-Nluc reporter destabilization hit call [9] | kinase-Nluc reporter destabilization hit call [10] |
| --- | --- | --- | --- | --- | --- | --- | --- | --- | --- | --- |
| Cc1nc(NC(=O)N2CCC[C@H]2C(N)=O)sc1-c1csc(C(C)(C)C)n1 (10 µM) | inactive: 0 | inactive: 0 | inactive: 0 | inactive: 0 | inactive: 0 | inactive: 0 | inactive: 0 | inactive: 0 | inactive: 0 | inactive: 0 |
| CC(C)(C)S(=O)(=O)c1ccc2nccc(Nc3n[nH]c4ccc(F)cc34)c2c1 (10 µM) | inactive: 0 | inactive: 0 | inactive: 0 | inactive: 0 | inactive: 0 | inactive: 0 | inactive: 0 | inactive: 0 | inactive: 0 | inactive: 0 |
